These are yes or no findings as the source states them, for the method shown.
Biological target: holo-Acinetobacter baumannii acyl carrier protein (Acinetobacter baumannii) (UniProt B7GYR8)
Test: NMR spin relaxation (R1, R2, hNOE); backbone dynamics of AbACP, 25 °C, 700 MHz (R2 also at 900 MHz); 0.5 mM protein in 25 mM MES, 5 mM CaCl2, 5 mM dithiothreitol, pH 6.1; average R2/R1 ratio; both purified

- binding: no binding (tested: 0.5 mM)
B1: holo-Acinetobacter baumannii acyl carrier protein (protein, UniProt B7GYR8 1-78)
chain: MSDIEQRVKQAVAEQLGLKAEEIKNEASFMDDLGADSLDLVELVMSFENDFDITIPDEDSNEITTVQSAIDYVTKKLG
modifications: 4'-phosphopantetheine prosthetic group attached to S37; 15N- and 13C-labelled
